Some results were stated once for a whole list of compounds, not compound by compound.
Test system: M. tuberculosis H37Rv_gfp
Format: cell-based, Mycobacterium tuberculosis
Conditions: in combination with pretomanid; bound stated

Compound: O=C(Nc1nc2ccc(Oc3cc(C(F)(F)F)ccn3)cc2s1)[C@@H]1C2C=CC(C2)[C@@H]1C(=O)O (stereo partly shown) [Example 27, 3-[[6-[[4-(trifluoromethyl)-2-pyridyl]oxy]-1,3-benzothiazol-2-yl]carbamoyl]bicyclo[2.2.1]hept-5-ene-2-carboxylic acid]
- EC50: < 500 nM
